Reference: patent US11921105B2, “Method for identifying positive allosteric modulators for odorant receptors” (FIRMENICH SA, priority 2017, dated 2024)
At least one structure is not confirmed: it was looked up by name or label, or the drawing left a doubt.

Test system: human panelists
Assay: Human psychophysical odor detection threshold of musk compounds
Settings: in vivo

SMILES: Cc1c([N+](=O)[O-])c(C)c([N+](=O)[O-])c(C(C)(C)C)c1[N+](=O)[O-] [Musk xylol]
- Mean odor detection threshold Log (μmol/l air): 2.20e^−8 Log (μmol/l air)
- Median odor detection threshold Log (μmol/l air): 1.02e^−8 Log (μmol/l air)
